Results on eight molecules are retold here after article doi:10.1101/2023.02.19.529116 (bioRxiv, 2023).

The target in test [1] is T1, PH-EGFP-Smaug (Drosophila) (UniProt Q23972).
T1 sequence: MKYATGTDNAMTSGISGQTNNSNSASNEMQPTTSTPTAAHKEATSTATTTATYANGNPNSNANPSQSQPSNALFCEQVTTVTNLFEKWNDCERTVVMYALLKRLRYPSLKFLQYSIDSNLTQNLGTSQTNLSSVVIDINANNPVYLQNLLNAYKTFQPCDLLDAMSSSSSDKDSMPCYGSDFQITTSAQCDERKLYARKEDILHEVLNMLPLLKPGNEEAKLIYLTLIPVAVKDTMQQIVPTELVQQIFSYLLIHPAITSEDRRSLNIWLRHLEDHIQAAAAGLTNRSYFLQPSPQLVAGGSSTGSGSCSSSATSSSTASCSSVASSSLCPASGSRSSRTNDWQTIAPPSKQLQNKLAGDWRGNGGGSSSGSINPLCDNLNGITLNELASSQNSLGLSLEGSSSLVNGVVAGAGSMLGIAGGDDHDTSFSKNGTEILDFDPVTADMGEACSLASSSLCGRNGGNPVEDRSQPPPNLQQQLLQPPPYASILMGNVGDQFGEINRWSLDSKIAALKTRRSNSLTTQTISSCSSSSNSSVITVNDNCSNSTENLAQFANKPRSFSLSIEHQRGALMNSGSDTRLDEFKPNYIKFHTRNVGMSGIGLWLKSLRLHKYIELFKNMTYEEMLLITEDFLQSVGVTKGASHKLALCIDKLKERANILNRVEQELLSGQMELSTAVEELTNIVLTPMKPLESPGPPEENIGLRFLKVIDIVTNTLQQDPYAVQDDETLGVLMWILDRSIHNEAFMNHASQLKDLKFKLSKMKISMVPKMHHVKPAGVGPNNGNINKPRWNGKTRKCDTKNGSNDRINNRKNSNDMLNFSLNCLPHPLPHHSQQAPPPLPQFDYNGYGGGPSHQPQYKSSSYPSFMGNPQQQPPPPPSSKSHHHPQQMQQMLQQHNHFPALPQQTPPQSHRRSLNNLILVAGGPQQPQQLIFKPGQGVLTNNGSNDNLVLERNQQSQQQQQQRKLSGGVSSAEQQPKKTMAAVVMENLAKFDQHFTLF
In words: ReLo.

In test [2] the target is T2, Smoothened (ReLo) (Drosophila) (UniProt P91682).
T2 sequence: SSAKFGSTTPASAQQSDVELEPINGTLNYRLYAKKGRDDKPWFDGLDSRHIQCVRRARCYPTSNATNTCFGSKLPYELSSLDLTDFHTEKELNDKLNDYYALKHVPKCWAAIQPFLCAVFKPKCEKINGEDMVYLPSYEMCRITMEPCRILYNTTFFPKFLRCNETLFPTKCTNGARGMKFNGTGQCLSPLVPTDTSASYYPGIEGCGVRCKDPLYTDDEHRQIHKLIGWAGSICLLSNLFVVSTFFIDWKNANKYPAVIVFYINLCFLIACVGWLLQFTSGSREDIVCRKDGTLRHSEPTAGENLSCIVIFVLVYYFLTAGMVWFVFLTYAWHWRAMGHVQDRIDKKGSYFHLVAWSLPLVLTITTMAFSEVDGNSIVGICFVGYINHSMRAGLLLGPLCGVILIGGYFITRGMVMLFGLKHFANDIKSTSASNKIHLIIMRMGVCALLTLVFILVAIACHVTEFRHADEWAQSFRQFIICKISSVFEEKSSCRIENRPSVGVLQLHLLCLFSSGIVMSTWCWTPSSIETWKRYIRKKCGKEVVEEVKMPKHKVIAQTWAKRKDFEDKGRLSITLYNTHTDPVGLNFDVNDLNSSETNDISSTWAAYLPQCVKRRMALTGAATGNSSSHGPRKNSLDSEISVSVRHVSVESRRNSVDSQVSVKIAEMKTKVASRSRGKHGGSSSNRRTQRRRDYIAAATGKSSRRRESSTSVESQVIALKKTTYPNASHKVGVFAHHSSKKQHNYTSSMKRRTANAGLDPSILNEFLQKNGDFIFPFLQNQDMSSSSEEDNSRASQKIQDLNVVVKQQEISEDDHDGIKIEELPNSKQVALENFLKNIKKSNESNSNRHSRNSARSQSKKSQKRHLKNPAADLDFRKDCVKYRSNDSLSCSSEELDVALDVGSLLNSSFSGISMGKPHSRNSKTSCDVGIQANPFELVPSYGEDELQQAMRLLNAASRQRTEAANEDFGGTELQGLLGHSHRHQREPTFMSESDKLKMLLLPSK
The experiment in a line: ReLo.

The target in test [3] is T3, Smoothened cytotail (Smo 556-1036), ReLo (Drosophila) (UniProt P91682).
T3 sequence: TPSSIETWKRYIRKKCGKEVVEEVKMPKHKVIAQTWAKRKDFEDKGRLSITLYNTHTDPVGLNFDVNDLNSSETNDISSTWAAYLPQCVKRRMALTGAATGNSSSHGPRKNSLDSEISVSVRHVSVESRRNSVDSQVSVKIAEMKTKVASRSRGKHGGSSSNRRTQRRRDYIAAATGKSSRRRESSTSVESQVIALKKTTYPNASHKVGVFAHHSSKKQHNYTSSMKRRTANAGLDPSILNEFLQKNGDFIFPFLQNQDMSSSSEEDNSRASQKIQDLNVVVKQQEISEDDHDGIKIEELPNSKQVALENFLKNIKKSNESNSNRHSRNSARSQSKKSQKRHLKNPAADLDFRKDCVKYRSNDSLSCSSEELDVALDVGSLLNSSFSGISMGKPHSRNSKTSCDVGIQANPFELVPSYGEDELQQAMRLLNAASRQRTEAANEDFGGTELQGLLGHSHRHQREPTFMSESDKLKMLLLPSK
In words: ReLo.

Test [4] addresses MBP-Oskar 292-325 (Drosophila). In words: pull-down.
In test [5] the target is Short Oskar (Y2H) (Drosophila). In words: two-hybrid.
For test [6], the target named is OST4-Short Oskar with the deletion of the SBR (ReLo) (Drosophila). The experiment in a line: ReLo.
Test [7] has as its target Smoothened deletion, ReLo (Drosophila) (UniProt P91682). The experiment in a line: ReLo.
In test [8] the target is Long Oskar (ReLo) (Drosophila). The experiment in a line: ReLo.

No constants are given. Whether binding was seen depends on the method and setting. For some of these results: Binding calls can cover weak binding; strength is not graded here. For some of these results: Sequences can lack the tags named with a protein.

On to Bard (from UniProt Q9VED4), for which the binding result in test [1] is on record as “binds”.

For the molecule “C-terminal regulatory domain of Fused (Drosophila) (domain or fragment)”, in test [2], the binding result is “binds”.

For the molecule Slmb (Drosophila), the binding entry in test [1] is “no binding”.

Regarding “Smaug NTD MUT (S250E/L253E), ReLo (Drosophila) (domain or fragment)”, the binding entry in test [3] is reported as “no binding”.

Take “Smaug deletion, ReLo (from UniProt Q23972)”: the binding entry in test [2] is “no binding”.

B1: Smaug 37-281 (domain or fragment, UniProt Q23972 37-281)
chain: TAAHKEATSTATTTATYANGNPNSNANPSQSQPSNALFCEQVTTVTNLFEKWNDCERTVVMYALLKRLRYPSLKFLQYSIDSNLTQNLGTSQTNLSSVVIDINANNPVYLQNLLNAYKTFQPCDLLDAMSSSSSDKDSMPCYGSDFQITTSAQCDERKLYARKEDILHEVLNMLPLLKPGNEEAKLIYLTLIPVAVKDTMQQIVPTELVQQIFSYLLIHPAITSEDRRSLNIWLRHLEDHIQAAA
Turning to B1, in test [4], the binding result was “binds”.

B2: Smaug (Y2H) (protein, UniProt Q23972 1-999)
chain: T1 sequence
In the case of B2, the binding result in test [5] is “binds”.

B3: Smaug (ReLo, without membrane anchor) (protein, UniProt Q23972 1-999)
chain: T1 sequence
As for B3, the binding entry in test [6], in test [7] and in test [8] was “no binding” throughout.
